From publication PMC8214221, “Sequence determinants in the cathelicidin LL-37 that promote inflammation via presentation of RNA to scavenger receptors” (The Journal of Biological Chemistry, 2021)
No constants are given. Whether binding was seen depends on the method and setting. In cells and extracts the contact can be indirect. Some results given as binding are weak or reduced against the parent protein; the word gives no strength.

T1: scavenger receptor (SR) B1 (human (endogenous in NHEK)) (UniProt Q8WTV0)
T1 sequence: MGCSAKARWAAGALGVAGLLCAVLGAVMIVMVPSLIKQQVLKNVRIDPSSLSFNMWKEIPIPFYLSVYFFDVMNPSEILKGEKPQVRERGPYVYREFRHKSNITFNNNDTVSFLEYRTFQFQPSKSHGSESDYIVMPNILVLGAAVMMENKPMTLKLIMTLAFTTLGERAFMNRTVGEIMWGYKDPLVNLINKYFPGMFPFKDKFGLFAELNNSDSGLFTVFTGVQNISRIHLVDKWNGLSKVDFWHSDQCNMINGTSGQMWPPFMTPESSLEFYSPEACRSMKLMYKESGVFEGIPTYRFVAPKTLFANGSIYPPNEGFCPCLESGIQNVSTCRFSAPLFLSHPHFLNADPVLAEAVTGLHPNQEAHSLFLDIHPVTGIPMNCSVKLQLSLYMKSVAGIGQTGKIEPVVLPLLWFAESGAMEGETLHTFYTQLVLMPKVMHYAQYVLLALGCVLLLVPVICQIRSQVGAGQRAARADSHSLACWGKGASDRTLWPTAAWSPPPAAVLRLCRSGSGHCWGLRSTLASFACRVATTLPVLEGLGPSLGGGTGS


The binders below were run against T1, scavenger receptor (SR) B1 (human (endogenous in NHEK)) (assay: proximity ligation; NHEKs treated with LL-34 peptides (2 μM) for 15 min, then biotinylated U1 dsRNA (2 μg/ml) for 60 min at 4 °C; washed, fixed in 4% paraformaldehyde; LL-37 antibody and SRB1 antibody; Duolink PLA, red signal counted in five fields; spatial correlation <40 nm; only the binder purified).

Binder | binding
LLGDFFRKSKEKIGKEFKRIVQRIKDFLRNLVPR [LL-34 parent peptide] | binds
LLGDFFRKSKEKIGKEFKRIVQRAKDFLRNLVPR [LL-34—I24A] | no binding (tested: 2 μM)
LLGDFFRKSKEKIGKEFKRIVQRIKDFLRNAVPR [LL-34—L31A] | no binding (tested: 2 μM)
